Measurements as given in patent publication US20030232342.

Protein sequences, listed by entry. Tags and fused reporters are not part of them. Lines headed by an entry give the natural chain unless they say otherwise; changes in a name come on top.
UniProt P06855: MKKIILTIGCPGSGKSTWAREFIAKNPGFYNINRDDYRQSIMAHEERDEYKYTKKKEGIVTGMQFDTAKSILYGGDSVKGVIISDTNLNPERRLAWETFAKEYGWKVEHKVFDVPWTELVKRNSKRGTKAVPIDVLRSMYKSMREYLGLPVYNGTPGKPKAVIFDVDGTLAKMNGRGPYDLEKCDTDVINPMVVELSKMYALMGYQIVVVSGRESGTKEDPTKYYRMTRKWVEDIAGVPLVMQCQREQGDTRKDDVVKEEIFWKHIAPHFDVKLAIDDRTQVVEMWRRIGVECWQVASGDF

Biological target: T4 polynucleotide kinase (Enterobacteria phage T4) (UniProt P06855)
Experiment: activity assay
Conditions: 5' phosphorylation, microwave 700 W 20-50 s; result in FIG. 4; protein details: Bangalore Genei; label: 32P; single-stranded DNA

“CCCCGCCCCGCGCCCCGCCCCGCGCCCCGCCCCGCGCCCCGCCCCGCGCCCCGCCCCGCG [60-mer oligonucleotide (12-mer x5)]” was tested, and the “activity on this sequence” value was “active”.
